# Measured values taken from PubChem BioAssay AID2685 (National Center for Advancing Translational Sciences (NCATS), 2010).
# The other results are listed elsewhere or left out. Further columns of the screen follow, without active or inactive calls. Most of these compounds were active or inconclusive in the main read-out, so they are no random draw. The note in brackets gives the kind of curve behind each potency; many fits are weak.
# Experiment: qHTS Assay for Lipid Storage Modulators in Drosophila S3 Cells;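 on cell number change: cells counted by Cell Tracker Red CMTPX staining in the red channel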
# Settings: BODIPY lipid droplet fluorescence, 18-24 h; for cell number change: measured here: cell count max response, cells fed with added oleic acid
# Method in brief: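 Drosophila S3 cells got compounds at several concentrations plus oleic acid (400 uM solution). Laser-scanning cytometry with 488 nm excitation read lipid droplets at 500-530 nm and cells at 575-640 nm. Percent activity was relative to 20 uM Triacsin C.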
# [1] = measured here: cell number channel AC50, cells fed with added oleic acid
# [2] = measured here: lipid fluorescence (Fed channel) AC50, cells fed with added oleic acid
Compound,cell number change [%],AC50 [1],AC50 [2]
COc1cc(/C=C/C(=O)N2c3ccccc3Sc3ccc(C(F)(F)F)cc32)cc(OC)c1OC,-33.3,"2.06 µM [falling, partial curve]",–
CN(C)S(=O)(=O)c1cc(NC(=O)COC(=O)C2COc3ccccc3O2)ccc1Cl (stereo not given),47.5,"29.1 µM [rising, single point]","20.6 µM [rising, partial curve]"
O=C(O)C12CC3CC(C1)CC(n1ncc(NCc4ccccc4)c(Cl)c1=O)(C3)C2,–,"0.461 µM [falling, single point]",–
CCc1ccc(NC(=O)c2ccc3nc(N)sc3c2)cc1,7.46,"0.411 µM [rising, full curve, poor fit]","0.92 µM [rising, full curve]"
Cc1ccc(CNC(=O)Cn2c(=O)oc3ccccc32)o1,39.8,"18.4 µM [rising, single point]",–
Cc1ccc2cccc(OCC(=O)Nc3ccc(N4CCOCC4)cc3)c2n1,–,"0.366 µM [rising, partial curve]","1.84 µM [rising, partial curve]"
N#Cc1cccc(NC(=O)CCC2CCCC2)c1,-15.6,"0.00651 µM [falling, full curve]","29.1 µM [falling, single point]"
NC(=O)NC1CCCc2c1[nH]c1ccc(Cl)cc21 (stereo not given),-20.5,"3.26 µM [falling, single point]","6.51 µM [falling, single point]"
C#CCOCCOCCOCCNc1nc(N2CCN(C(=O)CCCCCCCCCCNC(=O)[C@H](CCCCN)n3cc(C)nn3)CC2)nc(N2CCN(C(=O)CCCCCCCCCCNC(=O)[C@@H]([C@H](C)O)n3cc(C)nn3)CC2)n1,1.12,"0.13 µM [falling, full curve]","0.116 µM [falling, full curve, poor fit]"
Cc1ccc(NC(=S)NC(=O)/C=C/c2ccco2)c(O)c1,12.7,"1.16 µM [rising, single point]","0.731 µM [rising, full curve]"
Cc1ccc(S(=O)(=O)N(C)CC(=O)Nc2nc3ccccc3s2)cc1,-6.83,–,"0.651 µM [rising, full curve, poor fit]"
CC1CCN(C(=O)C(C)NCc2ccc(F)cc2)CC1 (stereo not given),23.2,–,–
CCOC(=O)c1sc(=S)n(Cc2ccccc2)c1C,25.6,–,"0.82 µM [rising, full curve]"
Cc1ccc(-n2ncc(C(=O)Nc3cc(Cl)ccc3Cl)c2C2CCNCC2)cc1,16,"0.184 µM [falling, full curve, poor fit]","0.116 µM [falling, full curve, poor fit]"
O=C(CN1CCC(C(=O)O)CC1)Nc1ccccc1Oc1ccccc1,-49.1,"4.11 µM [falling, single point]","5.17 µM [falling, single point]"
COc1ccc(NC(=O)CSc2nnc(-c3ccncc3)n2CC2CCCO2)c(OC)c1 (stereo not given),111,"10.3 µM [rising, partial curve]","8.2 µM [rising, partial curve]"
CCN1CCN(C(=O)c2ccc(S(=O)(=O)Nc3ccccc3)cc2)CC1,8.02,"0.00461 µM [falling, full curve, poor fit]",–
CC1CCC(NC(=O)C(C)N2C(=O)C3CCCCC3C2=O)CC1 (stereo not given),-16.1,–,"0.58 µM [falling, single point]"
N#CC(c1cccc(Cl)c1)c1ccc2c(C(F)(F)F)cc(C(F)(F)F)nc2n1 (stereo not given),-183,"11.6 µM [falling, partial curve]","5.8 µM [falling, full curve]"
CCC(=O)Nc1ccc(C(=O)n2ccc(C)n2)cc1,33.9,"11.6 µM [rising, single point]",–
N/C(=N\OC(=O)COc1ccc(Br)cc1Cl)c1cccnc1,0.57,–,"2.59 µM [rising, full curve, poor fit]"
CCCC12CN3CC(CCC)(CN(C1)C3C(O)C(O)C(O)CO)C2=O (stereo not given),151,"29.1 µM [rising, single point]","6.51 µM [falling, single point]"
Cc1c(NC(=S)N2CCN(c3cccc(Cl)c3)CC2)c(=O)n(-c2ccccc2)n1C,-6.05,–,–
Cc1ccc(NC(=S)Nc2ccc(OC(F)F)c(Cl)c2)cc1Cl,-54.1,"29.1 µM [falling, single point]","14.6 µM [falling, partial curve, poor fit]"
COc1ccc(C(=O)CSc2nnc(-c3cc4ccccc4cc3O)n2Cc2ccco2)cc1,–,–,"10.3 µM [falling, partial curve, poor fit]"
Cc1ccccc1-c1nc2c(s1)CCc1onc(-c3cccc([N+](=O)[O-])c3)c1-2,-15.2,–,"0.82 µM [rising, single point]"
N#CC1=C(N)Oc2cc(N)ccc2C1C1CCCCC1 (stereo not given),-29.1,–,"29.1 µM [falling, partial curve, poor fit]"
O=C(NCCc1c[nH]c2ccccc12)c1cc([N+](=O)[O-])cc([N+](=O)[O-])c1,-37.3,"9.2 µM [falling, partial curve]","29.1 µM [falling, single point]"

# A draw from above in order of formula weight, smallest number first:
Compound,cell number change [%],AC50 [1],AC50 [2]
Cc1ccc(NC(=S)NC(=O)/C=C/c2ccco2)c(O)c1,12.7,"1.16 µM [rising, single point]","0.731 µM [rising, full curve]"
Cc1ccccc1-c1nc2c(s1)CCc1onc(-c3cccc([N+](=O)[O-])c3)c1-2,-15.2,–,"0.82 µM [rising, single point]"
C#CCOCCOCCOCCNc1nc(N2CCN(C(=O)CCCCCCCCCCNC(=O)[C@H](CCCCN)n3cc(C)nn3)CC2)nc(N2CCN(C(=O)CCCCCCCCCCNC(=O)[C@@H]([C@H](C)O)n3cc(C)nn3)CC2)n1,1.12,"0.13 µM [falling, full curve]","0.116 µM [falling, full curve, poor fit]"

# (more compounds)

Compound,cell number change [%],AC50 [1],AC50 [2]
O=C1Nc2ccc(Br)cc2C12NNc1ccccc1O2 (stereo not given),–,–,"18.4 µM [falling, partial curve]"
CC1CCCCC1NC(=O)NC(=O)COC(=O)c1cncc(Br)c1 (stereo not given),-35.7,"29.1 µM [falling, single point]",–
NC(=O)CC(NC(=O)Cc1ccc(Cl)cc1)c1ccc(NCC2CC2)c([N+](=O)[O-])c1 (stereo not given),11.7,–,"13 µM [rising, single point]"
CN(C)/C=C1\SC(=S)N(N2C(=O)C3C4C=CC(C4)C3C2=O)C1=O (stereo not given),-33,–,"0.0146 µM [falling, full curve]"
Oc1ccc(C2=NNC(c3ccc(O)cc3)=NN2)cc1,-6.29,–,"0.00461 µM [rising, full curve, poor fit]"
O=C(Cn1cnc([N+](=O)[O-])c1)NCCc1ccccc1,6.8,"5.17 µM [rising, partial curve]",–
O=C1C(=Cc2cccn2-c2ccc(O)cc2)C(=O)c2ccccc21,39,"5.8 µM [rising, partial curve]",–
FC(F)(F)C(F)(F)C(F)(F)c1nnc2ccc(N3CCOCC3)nn12,–,"2.31 µM [falling, partial curve]","0.651 µM [falling, single point]"
COC(=O)[C@@]12CCCCN1[C@H](c1ccc(-c3ccc(C(C)=O)cc3)cc1)[C@@H]1C(=O)N(C)C(=O)[C@@H]12,-32.6,"6.51 µM [falling, full curve, poor fit]",–
COc1ccc(NC(=O)CSc2nnc(-c3ccccn3)n2N)cc1Cl,-8.86,–,"0.116 µM [falling, single point]"
O=C(O)CCCC(=O)NNC(=O)c1cccc(Br)c1,11.8,–,–
CCOC(=O)c1c(NC(=O)C(C)OC(=O)C2=COCCO2)sc2c1CCCC2 (stereo not given),-17.5,–,–
O=C(OCCN1CCCCC1)c1cccc(F)c1,-20.2,–,"29.1 µM [falling, single point]"
CCOC(=O)C(=O)NC12CC3CC(CC(C3)C1)C2,-30.5,"0.058 µM [falling, full curve]","25.9 µM [rising, single point]"
CCN(CC)S(=O)(=O)c1cc(C(=O)c2nccn2C)ccc1Cl,-20.3,–,"29.1 µM [falling, single point]"
O=C(Cc1c(F)cccc1Cl)N1CCN(S(=O)(=O)c2cccc(F)c2)CC1,–,–,"0.58 µM [falling, single point]"
Cc1ccc(C(=O)NCC(=O)N2CCCCCCC2)cc1C,-19.9,–,"6.51 µM [falling, single point]"
CCn1cc(S(=O)(=O)NCc2ccccc2Br)cn1,0.829,–,"18.4 µM [falling, single point]"
Cc1ccc(-n2nc(C)c(/C=N/NC(=O)c3cccnc3)c2Cl)cc1,-4.55,–,–
O=C(NC(=S)Nc1ccccc1Cl)c1cncc(Br)c1,–,–,"18.4 µM [rising, partial curve]"
O=C(c1ccc2ncsc2c1)N1CCCC(C(F)(F)F)C1 (stereo not given),147,"10.3 µM [rising, partial curve]","20.6 µM [rising, partial curve]"
Oc1ccc(-c2nc3ccc4ccccc4c3c3c2CCC3)cc1O,-42.7,"25.9 µM [falling, single point]","29.1 µM [falling, single point]"
COc1ccc(Cc2nnc(NS(=O)(=O)c3ccccc3)s2)cc1,17.4,–,"0.651 µM [rising, single point]"
NS(=O)(=O)c1ccc2nc(NC(=O)Nc3ccccc3F)sc2c1,-5.22,–,–
COc1ccc2c(c1)N(C)/C(=C/c1cccc[n+]1C)S2,84.7,"29.1 µM [rising, single point]",–
CCOC(=O)c1c(C)nc(C)c(C(=O)OCC)c1-c1ccco1,25.1,"2.59 µM [rising, full curve, poor fit]",–
Cc1ccc(NC(=O)C2CCN(S(=O)(=O)c3ccc4c(c3)C(C)(C)C(=O)N4C)CC2)c(C)c1,3.89,–,"10.3 µM [rising, partial curve]"
